Laboratory results: PubChem BioAssay AID743121 (NCATS, 2013)
The deposit covers about 26,000 reagents; shown is a part drawn at random. 167 of all reagents (0.63%) count as active. 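Calls are per gene from RSA p-values that are not deposited; an individual active-marked siRNA can sensitise only weakly.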 A number with no mark means an inactive call. The numbers tell different reagents against one gene apart. Not all columns of the deposit are shown.

Purpose: 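Partners whose loss is lethal together with topoisomerase I blockade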 (primary screen)
Cell system: MDA-MB-231 cells, a human breast cancer line
Knock-down reagent: single siRNA against human genes, 20 nM siRNA (0.8 pmol per well)
Time to read-out: 120 h (drug added 48 h after transfection, read 72 h later)
Conditions: camptothecin 20 nM (about EC30) for 72 h; vehicle 0.1% DMSO in parallel plates
Measurement: 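CellTiter-Glo ATP signal, scaled to control siRNA as percent viability; sensitisation given as log2 of untreated divided by camptothecin-treated viability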
Reading the numbers: log2 vehicle/camptothecin viability: higher = stronger sensitisation to camptothecin
Active means: 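Each gene scored by redundant siRNA activity (RSA) over its individual siRNA ratios; a gene is called active at p < 0.001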

S1PR1 #1
- log2 vehicle/camptothecin viability: -0.148

S1PR1 #2
- log2 vehicle/camptothecin viability: -0.128

S1PR1 #3
- log2 vehicle/camptothecin viability: 0.00779

S1PR1 #4
- log2 vehicle/camptothecin viability: 0.0719

DAPP1 #1
- log2 vehicle/camptothecin viability: -0.326

DAPP1 #2
- log2 vehicle/camptothecin viability: -0.392

DAPP1 #3
- log2 vehicle/camptothecin viability: 0.232

DAPP1 #4
- log2 vehicle/camptothecin viability: -0.0696

DAPP1 #5
- log2 vehicle/camptothecin viability: -0.323

GNG4 #1
- log2 vehicle/camptothecin viability: -0.358

GNG4 #2
- log2 vehicle/camptothecin viability: 0.00498

GNG4 #3
- log2 vehicle/camptothecin viability: 0.228

GNG4 #4
- log2 vehicle/camptothecin viability: -0.323

SERPINB3 #1
- log2 vehicle/camptothecin viability: -0.372

SERPINB3 #2
- log2 vehicle/camptothecin viability: -0.138

SERPINB3 #3
- log2 vehicle/camptothecin viability: -0.351

SERPINB3 #4
- log2 vehicle/camptothecin viability: -0.256

TAS2R16 #1
- log2 vehicle/camptothecin viability: 0.217

TAS2R16 #2
- log2 vehicle/camptothecin viability: 0.0276

TAS2R16 #3
- log2 vehicle/camptothecin viability: -0.394

TAS2R16 #4
- log2 vehicle/camptothecin viability: -0.413

NFATC1 #1
- log2 vehicle/camptothecin viability: -0.31

NFATC1 #2
- log2 vehicle/camptothecin viability: 0.0667

NFATC1 #3
- log2 vehicle/camptothecin viability: -0.076

NFATC1 #4
- log2 vehicle/camptothecin viability: 0.112

RAD54B #1
- log2 vehicle/camptothecin viability: 0.0062

RAD54B #2
- log2 vehicle/camptothecin viability: 0.31

RAD54B #3
- log2 vehicle/camptothecin viability: 0.56

SCN1A #1
- log2 vehicle/camptothecin viability: -0.457

SCN1A #2
- log2 vehicle/camptothecin viability: -0.348

SCN1A #3
- log2 vehicle/camptothecin viability: 0.114

OPCML #1
- log2 vehicle/camptothecin viability: -0.0783

OPCML #2
- log2 vehicle/camptothecin viability: -0.0955

OPCML #3
- log2 vehicle/camptothecin viability: 0.051

OPCML #4
- log2 vehicle/camptothecin viability: 0.00949

OPCML #5
- log2 vehicle/camptothecin viability: 0.0475

MAP4K5 #1
- log2 vehicle/camptothecin viability: -0.139

MAP4K5 #2
- log2 vehicle/camptothecin viability: -0.122

MAP4K5 #3
- log2 vehicle/camptothecin viability: -0.233

MAP4K5 #4
- log2 vehicle/camptothecin viability: -0.524

IL20RA #1
- log2 vehicle/camptothecin viability: -0.557

IL20RA #2
- log2 vehicle/camptothecin viability: -0.0487

IL20RA #3
- log2 vehicle/camptothecin viability: -0.154

IL20RA #4
- log2 vehicle/camptothecin viability: 0.427

DPP6 #1
- log2 vehicle/camptothecin viability: -0.457

DPP6 #2
- log2 vehicle/camptothecin viability: -0.386

DPP6 #3
- log2 vehicle/camptothecin viability: -0.608

DPP6 #4
- log2 vehicle/camptothecin viability: -0.0534

3 successive records already listed, quoted:
TAS2R16 #4
- log2 vehicle/camptothecin viability: -0.413

NFATC1 #1
- log2 vehicle/camptothecin viability: -0.31

NFATC1 #2
- log2 vehicle/camptothecin viability: 0.0667
